Publication PMC7714073 (FEBS Open Bio, 2020)
Non-standard residues stand in square brackets, D forms with d. No end group written: not given here. Ahx = NCCCCCC(=O)O

Test: general procedure: Fmoc solid-phase peptide synthesis
Conditions: whole synthesis, based on the capacity of the resin

Row | Substance | isolated yield [%]
1 | [Ahx]LLR-OH (N-terminus assumed; SMILES CC(C)C[C@H](NC(=O)CCCCCN)C(=O)N[C@@H](CC(C)C)C(=O)N[C@@H](CCCNC(=N)N)C(=O)O) | 74
2 | 6‐aminohexanoic acid (Ahx)–Phe–Leu–Arg–COOH | 36
